Laboratory results from patent publication US12590130B2, “Bipartite molecules and uses thereof in treating diseases associated with abnormal protein aggregates” (ACADEMIA SINICA, priority 2014, dated 2026).
Some of these results come from one statement about several compounds together.

Legend:
[1] = Stability of therapeutic peptides determined by HPLC; type: physicochemical; conditions: in water
Experimental: FIG. 2. Stability of the therapeutic peptides determined by HPLC. A: diagrams showing the retention time of the tested peptides from day 0 to day 28. B: charts showing the amount of the tested peptides at day 0 and day 28.
In this study, the rational design was tested for HD. Several bipartite therapeutic peptides containing 8 consecutive arginines (8R) attached to a stretch of consecutive glutamines (polyQ) were synthesized and their biological activity of decreasing the aggregation propensity of the mHtt protein was investigated. The length of the polyQ of these bipartite peptides was 5 (8R5Q), 10 (8R10Q), 15 (8R15Q) or 20 (8R20Q) (Table 2).

109QmHtt aggregates = test: TIRF microscopy of mHtt aggregates in Neuro2a cells; type: cell-based; conditions: Neuro2a cells expressing 109QmHtt
Experimental: FIG. 3. Diagrams showing the co-localization of tested bipartite peptides with the 109QmHtt aggregates. Panel A: Structure of TAMRA-labeled 8R10Q used in this study. Panel B: Epifluorescence micrographs of Neuro2a cells expressing 109QmHtt treated with TAMRA-8R10Q (8R10Q) at various time points. Note the co-localization of 8R10Q and 109QmHttGFP aggregates (GFP) from 8-24 hours (arrows). Scale bar: 10 μm. Panel C: TIRF micrographs of the Neuro2a expressing 109QmHtt treated with water or peptides as indicated at various time points. Note the decrease in aggregate size in 8R10Q and 8R15Q-treated cells. Panel D: Quantitation of the size of individual aggregates in Neuro2a at 8 hours (left) and 24 hours (right) after peptide treatment. […] Panel E: Quantitation of the number of aggregates in 20 Neuro2a cells at 12 hours (left) and 24 hours (right) after peptide treatment. Both the 8R10Q and 8R15Q increased the number of aggregates. Statistics performed with one way ANOVA. **p<0.01; ***p<0.001.
To probe into the details of the effect of peptide on the mHtt aggregates, the parameters of the mHtt aggregates were visualized and measured using the Total Internal Reflection Fluorescence (TIRF) microscopy. […] The number of aggregates in 20 cells was also calculated. 8R10Q and 8R15Q increased the number of the aggregates by 4-5 fold (FIG. 3, panel E).

[2] = tested on: Neuro2a cells expressing 109QmHtt; test: MTT cell viability with H2O2, cells expressing 109QmHtt; type: cell-based, mouse; conditions: 50 μM H2O2, 109QmHtt cells (~72% without peptide)

Row | Substance | time for which retention time and amount remained unchanged [1] | increase in the number of aggregates in 20 cells (109QmHtt aggregates) | survival rate [2]
1 | H-RRRRRRRRWDQQQQQQQQQQ-NH2 [Peptide 8R10Q, NH2-(R)8-W-D-(Q)10-CONH2] | at least 28 days | 4-5 fold | above 80%
2 | H-RRRRRRRRWDQQQQQQQQQQQQQQQ-NH2 [Peptide 8R15Q, NH2-(R)8-W-D-(Q)15-CONH2] |  | 4-5 fold | above 80%
3 | H-RRRRRRRRWDQQQQQ-NH2 [Peptide 8R5Q, NH2-(R)8-W-D-(Q)5-CONH2] | at least 28 days |  | 
